In paper PMC6172828:
These are yes or no findings as the source states them, for the method shown. Binding calls can cover weak binding; strength is not graded here. Tags and fused reporters may be left off the sequences shown.

Amino acid sequences for entries named in this document (tags omitted). A change or cut given only in a name is not applied to a line headed by its entry.
UniProt Q5DW34: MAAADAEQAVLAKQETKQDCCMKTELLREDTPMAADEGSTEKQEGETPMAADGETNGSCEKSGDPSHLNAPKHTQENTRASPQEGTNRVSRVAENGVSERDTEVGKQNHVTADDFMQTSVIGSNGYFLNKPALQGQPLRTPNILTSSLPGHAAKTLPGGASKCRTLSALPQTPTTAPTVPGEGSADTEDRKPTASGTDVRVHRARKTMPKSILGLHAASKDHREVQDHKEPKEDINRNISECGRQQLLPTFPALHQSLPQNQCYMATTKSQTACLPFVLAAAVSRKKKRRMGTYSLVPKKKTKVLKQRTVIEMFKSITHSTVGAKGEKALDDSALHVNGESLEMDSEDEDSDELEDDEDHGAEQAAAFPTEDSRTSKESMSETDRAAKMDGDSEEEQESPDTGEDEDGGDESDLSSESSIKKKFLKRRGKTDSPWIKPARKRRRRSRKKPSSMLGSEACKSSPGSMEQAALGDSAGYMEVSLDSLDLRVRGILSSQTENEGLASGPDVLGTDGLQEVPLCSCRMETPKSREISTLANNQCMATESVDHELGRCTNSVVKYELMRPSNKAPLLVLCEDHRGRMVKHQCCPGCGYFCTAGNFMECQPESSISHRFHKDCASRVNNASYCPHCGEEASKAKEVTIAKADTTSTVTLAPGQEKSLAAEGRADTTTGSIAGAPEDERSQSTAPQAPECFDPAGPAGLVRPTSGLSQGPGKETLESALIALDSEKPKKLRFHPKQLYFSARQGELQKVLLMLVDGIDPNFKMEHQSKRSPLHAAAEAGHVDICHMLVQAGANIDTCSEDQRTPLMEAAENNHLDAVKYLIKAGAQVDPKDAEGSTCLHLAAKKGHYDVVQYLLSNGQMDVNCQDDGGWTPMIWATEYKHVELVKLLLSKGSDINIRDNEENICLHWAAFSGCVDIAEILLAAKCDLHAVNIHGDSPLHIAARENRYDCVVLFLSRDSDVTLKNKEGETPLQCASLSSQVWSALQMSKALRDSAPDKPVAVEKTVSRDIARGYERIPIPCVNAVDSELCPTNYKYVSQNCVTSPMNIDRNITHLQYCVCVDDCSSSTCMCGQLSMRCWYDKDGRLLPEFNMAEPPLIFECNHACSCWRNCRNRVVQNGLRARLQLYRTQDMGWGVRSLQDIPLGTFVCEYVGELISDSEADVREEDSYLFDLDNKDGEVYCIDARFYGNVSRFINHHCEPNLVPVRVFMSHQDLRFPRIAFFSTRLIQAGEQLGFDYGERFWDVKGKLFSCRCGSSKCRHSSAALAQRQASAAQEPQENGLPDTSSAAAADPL

Biological target: GST-fused mouse GLP catalytic SET-domain (mouse) (UniProt Q5DW34)
Test: pull-down; GST pull-down after in vitro methylation: 4 µg recombinant proteins pre-incubated at 30 °C, SAM added for the indicated times; glutathione Sepharose in 20 mM Tris-HCl pH 7.5, 50 mM NaCl, 1 mM EDTA, 10% glycerol, 0.5% NP-40, 4 °C, 4 h; western blot; both purified

B1: His and 3xFLAG-tagged ATF7IP (1–364), unmethylated (domain or fragment, UniProt Q7TT18 1-364)
chain: MDSVEEPQKKVFKARKTMRASDRQQLDAVHRVKGELLRADGKLLNGSHENGDLDPTSPLENTDCIQDREEVNGIDGICFQSEESTTEWKETPCMPNVAVKNKQEDLNSEALSPSITCDLSSRVTTEPGSGSPASDNPGCGTPVSDNPASDNPASDNPASDNPDSGDLAAGELATTVQATGDSACEEPPSSDPSSSDPTSSEPSSSEPTCSEPISGDPVSEEAASHDLVSGDSTCSEPVSGEPVSHEAASSEPATSEPASDEPVARVVAACELAPGESALDDCAPSGDSQSDEPPSSEDSLPRSVCSGLASGELTPGELSVEPATDTVKPSSSAVCEAGPDPDKTEPSSNNSDDCPGKSEDDEHL
binding: binds
